These results are taken from publication doi:10.1101/134007.

In test [1] the target is Human Myc-DHHC7 (human) (UniProt Q9NXF8). Briefly: native gel or EMSA.
The target in test [2] is T1, Human Myc-DHHC20 (human), Q5W0Z9.
T1 chain: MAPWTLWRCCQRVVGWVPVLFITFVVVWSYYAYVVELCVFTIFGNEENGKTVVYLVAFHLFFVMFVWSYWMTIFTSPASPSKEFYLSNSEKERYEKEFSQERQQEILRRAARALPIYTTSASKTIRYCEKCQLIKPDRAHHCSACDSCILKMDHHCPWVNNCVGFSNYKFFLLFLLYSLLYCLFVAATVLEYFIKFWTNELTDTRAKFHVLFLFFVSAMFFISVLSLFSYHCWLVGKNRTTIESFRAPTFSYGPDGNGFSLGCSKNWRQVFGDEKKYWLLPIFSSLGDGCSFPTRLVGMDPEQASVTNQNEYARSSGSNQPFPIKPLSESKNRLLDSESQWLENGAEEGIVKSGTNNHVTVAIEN
Briefly: native gel or EMSA. The following applies: remark: other sources report otherwise.

Test [3] addresses T2, Human Myc-DHHC6 (WT) (human) (UniProt Q9H6R6).
T2 sequence: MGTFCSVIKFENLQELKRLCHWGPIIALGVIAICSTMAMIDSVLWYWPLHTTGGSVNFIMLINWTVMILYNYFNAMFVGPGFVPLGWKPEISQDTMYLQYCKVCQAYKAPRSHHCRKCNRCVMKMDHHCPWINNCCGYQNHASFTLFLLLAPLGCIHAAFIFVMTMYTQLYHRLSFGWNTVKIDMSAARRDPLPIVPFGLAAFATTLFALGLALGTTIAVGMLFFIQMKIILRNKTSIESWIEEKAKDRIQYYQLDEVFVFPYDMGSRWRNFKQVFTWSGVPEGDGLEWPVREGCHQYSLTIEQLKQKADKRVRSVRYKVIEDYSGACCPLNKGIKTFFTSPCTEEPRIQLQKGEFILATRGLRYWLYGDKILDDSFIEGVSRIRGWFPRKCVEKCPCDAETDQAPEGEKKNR
In words: co-IP.

Test [4] deals with T2, Human Myc-DHHC6 (WT) (human). In words: native gel or EMSA. (In general: A gel shift assay detects complexes by their altered migration in electrophoresis.)
In test [5] the target is Myc-DHHC6-C328A-C329A-C343A (AAA) (human) (UniProt Q9H6R6). In words: native gel or EMSA.

These are yes or no findings as the source states them, for the method shown. For some of these results: Binding seen in cells or lysates may run through a third protein. Some entries that bind do so weakly or less than the wild type. Sequences can lack the tags named with a protein.

B1: Human Myc-DHHC7 (enzyme, UniProt Q9NXF8 1-308)
chain: MQPSGHRLRDVEHHPLLAENDNYDSSSSSSSEADVADRVWFIRDGCGMICAVMTWLLVAYADFVVTFVMLLPSKDFWYSVVNGVIFNCLAVLALSSHLRTMLTDPGAVPKGNATKEYMESLQLKPGEVIYKCPKCCCIKPERAHHCSICKRCIRKMDHHCPWVNNCVGEKNQRFFVLFTMYIALSSVHALILCGFQFISCVRGQWTECSDFSPPITVILLIFLCLEGLLFFTFTAVMFGTQIHSICNDETEIERLKSEKPTWERRLRWEGMKSVFGGPPSLLWMNPFVGFRFRRLPTRPRKGGPEFSV
Turning to B1, the binding result in test [1] is given as “no binding”.

B2: Human Myc-DHHC20, Q5W0Z9 1-365 (enzyme)
chain: MAPWTLWRCCQRVVGWVPVLFITFVVVWSYYAYVVELCVFTIFGNEENGKTVVYLVAFHLFFVMFVWSYWMTIFTSPASPSKEFYLSNSEKERYEKEFSQERQQEILRRAARALPIYTTSASKTIRYCEKCQLIKPDRAHHCSACDSCILKMDHHCPWVNNCVGFSNYKFFLLFLLYSLLYCLFVAATVLEYFIKFWTNELTDTRAKFHVLFLFFVSAMFFISVLSLFSYHCWLVGKNRTTIESFRAPTFSYGPDGNGFSLGCSKNWRQVFGDEKKYWLLPIFSSLGDGCSFPTRLVGMDPEQASVTNQNEYARSSGSNQPFPIKPLSESKNRLLDSESQWLENGAEEGIVKSGTNNHVTVAIEN
With B2, the binding entry in test [2] was “no binding”.

B3: Human Myc-DHHC6 (WT) (enzyme, UniProt Q9H6R6-1 1-413)
chain: MGTFCSVIKFENLQELKRLCHWGPIIALGVIAICSTMAMIDSVLWYWPLHTTGGSVNFIMLINWTVMILYNYFNAMFVGPGFVPLGWKPEISQDTMYLQYCKVCQAYKAPRSHHCRKCNRCVMKMDHHCPWINNCCGYQNHASFTLFLLLAPLGCIHAAFIFVMTMYTQLYHRLSFGWNTVKIDMSAARRDPLPIVPFGLAAFATTLFALGLALGTTIAVGMLFFIQMKIILRNKTSIESWIEEKAKDRIQYYQLDEVFVFPYDMGSRWRNFKQVFTWSGVPEGDGLEWPVREGCHQYSLTIEQLKQKADKRVRSVRYKVIEDYSGACCPLNKGIKTFFTSPCTEEPRIQLQKGEFILATRGLRYWLYGDKILDDSFIEGVSRIRGWFPRKCVEKCPCDAETDQAPEGEKKNR
Consider B3, for which the binding entry in test [3] and in test [4] was “binds” in each case.

B4: GFP-tagged DHHC6-C328A-C329A-C343A (AAA) (enzyme, UniProt Q9H6R6-1 1-413)
chain: MGTFCSVIKFENLQELKRLCHWGPIIALGVIAICSTMAMIDSVLWYWPLHTTGGSVNFIMLINWTVMILYNYFNAMFVGPGFVPLGWKPEISQDTMYLQYCKVCQAYKAPRSHHCRKCNRCVMKMDHHCPWINNCCGYQNHASFTLFLLLAPLGCIHAAFIFVMTMYTQLYHRLSFGWNTVKIDMSAARRDPLPIVPFGLAAFATTLFALGLALGTTIAVGMLFFIQMKIILRNKTSIESWIEEKAKDRIQYYQLDEVFVFPYDMGSRWRNFKQVFTWSGVPEGDGLEWPVREGCHQYSLTIEQLKQKADKRVRSVRYKVIEDYSGAAAPLNKGIKTFFTSPATEEPRIQLQKGEFILATRGLRYWLYGDKILDDSFIEGVSRIRGWFPRKCVEKCPCDAETDQAPEGEKKNR
Consider B4, for which, in test [3], the binding result is on record as “no binding”.

B5: Myc-DHHC6-C328A-C329A-C343A (AAA) (enzyme, UniProt Q9H6R6-1 1-413)
chain: MGTFCSVIKFENLQELKRLCHWGPIIALGVIAICSTMAMIDSVLWYWPLHTTGGSVNFIMLINWTVMILYNYFNAMFVGPGFVPLGWKPEISQDTMYLQYCKVCQAYKAPRSHHCRKCNRCVMKMDHHCPWINNCCGYQNHASFTLFLLLAPLGCIHAAFIFVMTMYTQLYHRLSFGWNTVKIDMSAARRDPLPIVPFGLAAFATTLFALGLALGTTIAVGMLFFIQMKIILRNKTSIESWIEEKAKDRIQYYQLDEVFVFPYDMGSRWRNFKQVFTWSGVPEGDGLEWPVREGCHQYSLTIEQLKQKADKRVRSVRYKVIEDYSGAAAPLNKGIKTFFTSPATEEPRIQLQKGEFILATRGLRYWLYGDKILDDSFIEGVSRIRGWFPRKCVEKCPCDAETDQAPEGEKKNR
Turning to B5, the binding entry in test [5] is given as “binds”.

B6: GFP-tagged DHHC6 ΔDHHC (Del-D126-H127-H128-C129) (enzyme, UniProt Q9H6R6-1)
chain: MGTFCSVIKFENLQELKRLCHWGPIIALGVIAICSTMAMIDSVLWYWPLHTTGGSVNFIMLINWTVMILYNYFNAMFVGPGFVPLGWKPEISQDTMYLQYCKVCQAYKAPRSHHCRKCNRCVMKMPWINNCCGYQNHASFTLFLLLAPLGCIHAAFIFVMTMYTQLYHRLSFGWNTVKIDMSAARRDPLPIVPFGLAAFATTLFALGLALGTTIAVGMLFFIQMKIILRNKTSIESWIEEKAKDRIQYYQLDEVFVFPYDMGSRWRNFKQVFTWSGVPEGDGLEWPVREGCHQYSLTIEQLKQKADKRVRSVRYKVIEDYSGACCPLNKGIKTFFTSPCTEEPRIQLQKGEFILATRGLRYWLYGDKILDDSFIEGVSRIRGWFPRKCVEKCPCDAETDQAPEGEKKNR
As for B6, the binding result in test [3] was “binds”.
